The target of test [1] is T1, EGL-8 used as bait in GST pull-downs of UNC-16 domains (C. elegans) (UniProt G5EBH0).
T1 sequence: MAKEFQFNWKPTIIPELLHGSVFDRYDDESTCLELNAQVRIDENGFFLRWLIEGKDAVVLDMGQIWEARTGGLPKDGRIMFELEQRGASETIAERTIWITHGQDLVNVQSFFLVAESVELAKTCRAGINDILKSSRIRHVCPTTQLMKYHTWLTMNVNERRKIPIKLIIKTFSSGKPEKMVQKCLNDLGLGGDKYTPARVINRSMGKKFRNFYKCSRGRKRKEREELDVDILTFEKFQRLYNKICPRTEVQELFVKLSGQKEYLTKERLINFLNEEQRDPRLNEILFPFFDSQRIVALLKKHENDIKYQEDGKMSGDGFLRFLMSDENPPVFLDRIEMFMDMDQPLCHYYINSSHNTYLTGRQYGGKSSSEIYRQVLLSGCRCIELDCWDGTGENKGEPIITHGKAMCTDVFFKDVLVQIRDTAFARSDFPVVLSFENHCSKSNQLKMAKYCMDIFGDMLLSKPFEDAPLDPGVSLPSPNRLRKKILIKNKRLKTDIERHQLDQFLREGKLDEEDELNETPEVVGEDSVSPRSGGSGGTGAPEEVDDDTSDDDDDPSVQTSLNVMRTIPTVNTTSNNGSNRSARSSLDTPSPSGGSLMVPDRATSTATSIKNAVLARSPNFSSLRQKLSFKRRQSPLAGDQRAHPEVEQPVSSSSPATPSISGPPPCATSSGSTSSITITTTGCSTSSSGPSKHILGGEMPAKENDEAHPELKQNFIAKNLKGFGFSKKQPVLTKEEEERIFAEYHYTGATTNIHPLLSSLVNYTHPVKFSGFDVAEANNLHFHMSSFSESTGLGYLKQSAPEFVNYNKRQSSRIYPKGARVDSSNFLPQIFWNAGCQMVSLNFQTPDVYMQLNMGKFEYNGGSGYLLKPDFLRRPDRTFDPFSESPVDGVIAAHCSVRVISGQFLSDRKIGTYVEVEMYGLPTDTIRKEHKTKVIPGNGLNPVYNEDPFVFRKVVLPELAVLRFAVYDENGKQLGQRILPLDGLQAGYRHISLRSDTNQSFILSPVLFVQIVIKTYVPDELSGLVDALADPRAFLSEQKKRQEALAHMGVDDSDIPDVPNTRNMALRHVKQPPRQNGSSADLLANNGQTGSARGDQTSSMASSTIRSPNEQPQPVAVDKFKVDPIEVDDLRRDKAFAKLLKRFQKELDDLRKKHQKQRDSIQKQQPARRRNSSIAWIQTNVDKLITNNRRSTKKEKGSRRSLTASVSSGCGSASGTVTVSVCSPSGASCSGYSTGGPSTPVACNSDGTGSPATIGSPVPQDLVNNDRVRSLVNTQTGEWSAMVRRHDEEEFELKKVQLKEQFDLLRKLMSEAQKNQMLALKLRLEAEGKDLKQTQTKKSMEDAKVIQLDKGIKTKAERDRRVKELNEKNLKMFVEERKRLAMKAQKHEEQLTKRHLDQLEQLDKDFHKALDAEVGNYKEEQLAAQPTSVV
Kind of test: pull-down; GST pull-down between EGL-8 and UNC-16; prey in vitro translated HA-tagged UNC-16 or EGL-8 domains; Western blot (Fig. 5D, 5E, 7J); only the target purified. (Immunoblotting shows a protein as a band on a membrane.)

Test [2] has as its target T2, RAB-10 used in GST pull-downs, loaded with GTPγS or GDP (C. elegans) (UniProt Q94148).
T2 sequence: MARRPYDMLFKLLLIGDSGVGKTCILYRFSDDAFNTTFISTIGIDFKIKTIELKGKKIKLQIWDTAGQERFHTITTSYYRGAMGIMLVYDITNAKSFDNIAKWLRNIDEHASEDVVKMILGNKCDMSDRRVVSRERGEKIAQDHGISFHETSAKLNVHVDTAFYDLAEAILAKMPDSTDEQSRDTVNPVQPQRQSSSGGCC
The experiment in a line: pull-down; GST pull-down with RAB-10 loaded with GTPγS; prey in vitro translated HA-tagged UNC-16 domains; Western blot (Fig. 2C, 7J); only the target purified.

Test [3] addresses T3, RAB-10(T23N) (epitope-tagged, expressed in C. elegans animals) (C. elegans) (UniProt Q94148).
T3 sequence: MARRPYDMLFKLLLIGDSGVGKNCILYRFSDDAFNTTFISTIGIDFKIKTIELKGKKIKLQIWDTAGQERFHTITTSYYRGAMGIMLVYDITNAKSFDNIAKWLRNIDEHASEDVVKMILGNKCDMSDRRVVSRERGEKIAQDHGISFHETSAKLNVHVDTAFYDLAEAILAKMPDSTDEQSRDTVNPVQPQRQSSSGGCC
The experiment in a line: co-IP; lysates of C. elegans animals expressing epitope-tagged proteins (Fig. 2A, 5C); immunoblot.

For test [4], the target named is T4, RAB-10(Q68L) (epitope-tagged, expressed in C. elegans animals) (C. elegans) (UniProt Q94148).
T4 sequence: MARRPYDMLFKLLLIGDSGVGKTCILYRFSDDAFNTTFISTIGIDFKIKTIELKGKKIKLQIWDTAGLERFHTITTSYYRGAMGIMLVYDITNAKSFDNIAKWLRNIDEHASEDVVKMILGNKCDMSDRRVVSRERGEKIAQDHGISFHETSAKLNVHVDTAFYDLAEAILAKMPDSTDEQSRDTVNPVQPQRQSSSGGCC
The test is described as above.

Test [5] concerns the target UNC-16 (epitope-tagged, expressed in C. elegans animals) (C. elegans). The description is as above.

These are yes or no findings as the source states them, for the method shown. Binding seen in cells or lysates may run through a third protein. For some assays here: Binding can be weak; no strength is given. For some assays here: Sequences can lack the tags named with a protein.

Turning to “HA-tagged UNC-16 fragment containing the LZII domain (in vitro translated) (C. elegans) (domain or fragment)”, the binding entry in test [1] and in test [2] was “binds” in each case. On to “UNC-16 (epitope-tagged, expressed in C. elegans animals)”, for which the values for the binding result in test [3] and in test [4] were “no binding” and “binds”, respectively.

B1: EGL-8::mCherry (expressed in C. elegans animals) (enzyme, UniProt G5EBH0 1-1431)
chain: MAKEFQFNWKPTIIPELLHGSVFDRYDDESTCLELNAQVRIDENGFFLRWLIEGKDAVVLDMGQIWEARTGGLPKDGRIMFELEQRGASETIAERTIWITHGQDLVNVQSFFLVAESVELAKTCRAGINDILKSSRIRHVCPTTQLMKYHTWLTMNVNERRKIPIKLIIKTFSSGKPEKMVQKCLNDLGLGGDKYTPARVINRSMGKKFRNFYKCSRGRKRKEREELDVDILTFEKFQRLYNKICPRTEVQELFVKLSGQKEYLTKERLINFLNEEQRDPRLNEILFPFFDSQRIVALLKKHENDIKYQEDGKMSGDGFLRFLMSDENPPVFLDRIEMFMDMDQPLCHYYINSSHNTYLTGRQYGGKSSSEIYRQVLLSGCRCIELDCWDGTGENKGEPIITHGKAMCTDVFFKDVLVQIRDTAFARSDFPVVLSFENHCSKSNQLKMAKYCMDIFGDMLLSKPFEDAPLDPGVSLPSPNRLRKKILIKNKRLKTDIERHQLDQFLREGKLDEEDELNETPEVVGEDSVSPRSGGSGGTGAPEEVDDDTSDDDDDPSVQTSLNVMRTIPTVNTTSNNGSNRSARSSLDTPSPSGGSLMVPDRATSTATSIKNAVLARSPNFSSLRQKLSFKRRQSPLAGDQRAHPEVEQPVSSSSPATPSISGPPPCATSSGSTSSITITTTGCSTSSSGPSKHILGGEMPAKENDEAHPELKQNFIAKNLKGFGFSKKQPVLTKEEEERIFAEYHYTGATTNIHPLLSSLVNYTHPVKFSGFDVAEANNLHFHMSSFSESTGLGYLKQSAPEFVNYNKRQSSRIYPKGARVDSSNFLPQIFWNAGCQMVSLNFQTPDVYMQLNMGKFEYNGGSGYLLKPDFLRRPDRTFDPFSESPVDGVIAAHCSVRVISGQFLSDRKIGTYVEVEMYGLPTDTIRKEHKTKVIPGNGLNPVYNEDPFVFRKVVLPELAVLRFAVYDENGKQLGQRILPLDGLQAGYRHISLRSDTNQSFILSPVLFVQIVIKTYVPDELSGLVDALADPRAFLSEQKKRQEALAHMGVDDSDIPDVPNTRNMALRHVKQPPRQNGSSADLLANNGQTGSARGDQTSSMASSTIRSPNEQPQPVAVDKFKVDPIEVDDLRRDKAFAKLLKRFQKELDDLRKKHQKQRDSIQKQQPARRRNSSIAWIQTNVDKLITNNRRSTKKEKGSRRSLTASVSSGCGSASGTVTVSVCSPSGASCSGYSTGGPSTPVACNSDGTGSPATIGSPVPQDLVNNDRVRSLVNTQTGEWSAMVRRHDEEEFELKKVQLKEQFDLLRKLMSEAQKNQMLALKLRLEAEGKDLKQTQTKKSMEDAKVIQLDKGIKTKAERDRRVKELNEKNLKMFVEERKRLAMKAQKHEEQLTKRHLDQLEQLDKDFHKALDAEVGNYKEEQLAAQPTSVV
For the molecule B1, the binding result in test [5] was “binds”.
